Reference: the supplement of paper PMC12819154, “High-throughput peptide-centric local stability assay extends protein–ligand identification to membrane proteins, tissues and bacteria” (Nature Structural & Molecular Biology, 2025)
The list shows a part of the results. Small differences around the control level are noise.

Protein sequences, listed by entry. Tags and fused reporters are not part of them. Lines headed by an entry give the natural chain unless they say otherwise; changes in a name come on top.
UniProt Q8NF67: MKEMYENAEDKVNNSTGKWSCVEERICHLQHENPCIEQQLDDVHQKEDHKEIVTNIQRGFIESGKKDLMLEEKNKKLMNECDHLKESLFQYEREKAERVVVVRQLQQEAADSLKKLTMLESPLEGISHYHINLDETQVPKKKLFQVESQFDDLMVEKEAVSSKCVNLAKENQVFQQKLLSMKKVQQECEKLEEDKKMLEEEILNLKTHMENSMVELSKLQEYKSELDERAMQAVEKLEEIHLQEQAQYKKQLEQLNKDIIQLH
UniProt Q8N6H7: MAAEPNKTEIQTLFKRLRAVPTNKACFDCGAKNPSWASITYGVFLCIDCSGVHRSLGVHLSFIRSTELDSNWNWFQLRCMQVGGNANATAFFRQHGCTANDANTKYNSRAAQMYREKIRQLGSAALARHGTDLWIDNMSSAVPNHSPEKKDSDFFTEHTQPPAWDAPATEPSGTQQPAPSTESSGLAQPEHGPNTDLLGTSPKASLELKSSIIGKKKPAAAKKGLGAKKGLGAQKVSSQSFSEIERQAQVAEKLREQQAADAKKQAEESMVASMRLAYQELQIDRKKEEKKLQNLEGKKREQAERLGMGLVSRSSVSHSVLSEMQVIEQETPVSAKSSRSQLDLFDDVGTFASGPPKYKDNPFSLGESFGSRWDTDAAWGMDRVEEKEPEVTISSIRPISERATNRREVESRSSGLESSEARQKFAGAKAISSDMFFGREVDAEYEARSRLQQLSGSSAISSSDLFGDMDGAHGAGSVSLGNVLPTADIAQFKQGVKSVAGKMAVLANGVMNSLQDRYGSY
UniProt Q8N9B4: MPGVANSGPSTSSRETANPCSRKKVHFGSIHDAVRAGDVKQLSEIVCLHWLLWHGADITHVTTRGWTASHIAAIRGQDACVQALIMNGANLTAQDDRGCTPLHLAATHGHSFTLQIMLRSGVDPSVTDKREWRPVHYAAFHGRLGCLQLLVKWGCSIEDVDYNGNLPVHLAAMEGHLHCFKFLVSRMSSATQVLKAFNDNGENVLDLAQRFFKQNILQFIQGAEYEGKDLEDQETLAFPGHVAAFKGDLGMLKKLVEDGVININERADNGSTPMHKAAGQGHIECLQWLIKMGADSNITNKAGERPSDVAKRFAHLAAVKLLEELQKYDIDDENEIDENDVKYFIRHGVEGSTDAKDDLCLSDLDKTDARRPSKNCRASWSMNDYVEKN
UniProt Q8TAC2: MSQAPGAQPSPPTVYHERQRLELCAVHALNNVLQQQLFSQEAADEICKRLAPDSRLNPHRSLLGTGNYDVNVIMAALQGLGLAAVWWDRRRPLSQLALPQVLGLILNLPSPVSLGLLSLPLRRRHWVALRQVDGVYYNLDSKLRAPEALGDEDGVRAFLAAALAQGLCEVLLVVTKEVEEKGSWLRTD
UniProt Q8TAA3: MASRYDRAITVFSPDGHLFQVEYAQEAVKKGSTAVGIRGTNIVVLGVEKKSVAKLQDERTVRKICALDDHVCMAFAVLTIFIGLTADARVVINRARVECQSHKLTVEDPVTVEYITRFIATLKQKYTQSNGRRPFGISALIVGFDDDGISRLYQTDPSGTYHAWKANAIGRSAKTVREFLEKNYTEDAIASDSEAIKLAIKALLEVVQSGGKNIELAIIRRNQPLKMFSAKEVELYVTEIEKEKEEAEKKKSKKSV
UniProt Q8NFH5: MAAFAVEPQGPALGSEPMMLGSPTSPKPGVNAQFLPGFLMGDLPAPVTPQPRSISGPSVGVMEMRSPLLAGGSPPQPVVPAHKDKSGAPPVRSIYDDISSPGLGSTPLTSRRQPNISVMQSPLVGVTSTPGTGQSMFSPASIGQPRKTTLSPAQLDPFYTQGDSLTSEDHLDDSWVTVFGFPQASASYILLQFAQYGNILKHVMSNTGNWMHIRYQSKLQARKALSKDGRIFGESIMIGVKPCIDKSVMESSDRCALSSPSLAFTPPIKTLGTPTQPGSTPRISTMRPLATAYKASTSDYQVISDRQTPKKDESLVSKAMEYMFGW
UniProt Q8NCE0: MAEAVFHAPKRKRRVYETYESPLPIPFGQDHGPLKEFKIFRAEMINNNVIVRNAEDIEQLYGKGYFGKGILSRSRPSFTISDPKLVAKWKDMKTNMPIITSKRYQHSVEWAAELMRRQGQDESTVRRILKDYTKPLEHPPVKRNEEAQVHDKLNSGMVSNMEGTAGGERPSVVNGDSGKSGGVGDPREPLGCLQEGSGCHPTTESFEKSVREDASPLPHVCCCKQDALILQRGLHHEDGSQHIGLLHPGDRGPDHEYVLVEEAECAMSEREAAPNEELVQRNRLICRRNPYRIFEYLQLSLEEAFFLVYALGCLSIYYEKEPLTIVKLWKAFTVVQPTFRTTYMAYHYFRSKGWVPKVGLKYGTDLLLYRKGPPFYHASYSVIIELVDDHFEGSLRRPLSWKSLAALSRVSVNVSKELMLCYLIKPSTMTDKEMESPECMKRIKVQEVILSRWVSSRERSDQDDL
UniProt Q8NBA8: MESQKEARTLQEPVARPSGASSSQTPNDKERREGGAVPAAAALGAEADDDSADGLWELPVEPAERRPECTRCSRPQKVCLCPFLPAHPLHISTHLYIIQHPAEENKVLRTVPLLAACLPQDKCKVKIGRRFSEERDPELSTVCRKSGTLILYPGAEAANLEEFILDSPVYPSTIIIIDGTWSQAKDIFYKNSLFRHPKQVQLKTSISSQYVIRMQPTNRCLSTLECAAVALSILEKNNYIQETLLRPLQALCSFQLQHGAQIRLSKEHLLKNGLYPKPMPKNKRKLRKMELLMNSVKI
UniProt Q8NFC6: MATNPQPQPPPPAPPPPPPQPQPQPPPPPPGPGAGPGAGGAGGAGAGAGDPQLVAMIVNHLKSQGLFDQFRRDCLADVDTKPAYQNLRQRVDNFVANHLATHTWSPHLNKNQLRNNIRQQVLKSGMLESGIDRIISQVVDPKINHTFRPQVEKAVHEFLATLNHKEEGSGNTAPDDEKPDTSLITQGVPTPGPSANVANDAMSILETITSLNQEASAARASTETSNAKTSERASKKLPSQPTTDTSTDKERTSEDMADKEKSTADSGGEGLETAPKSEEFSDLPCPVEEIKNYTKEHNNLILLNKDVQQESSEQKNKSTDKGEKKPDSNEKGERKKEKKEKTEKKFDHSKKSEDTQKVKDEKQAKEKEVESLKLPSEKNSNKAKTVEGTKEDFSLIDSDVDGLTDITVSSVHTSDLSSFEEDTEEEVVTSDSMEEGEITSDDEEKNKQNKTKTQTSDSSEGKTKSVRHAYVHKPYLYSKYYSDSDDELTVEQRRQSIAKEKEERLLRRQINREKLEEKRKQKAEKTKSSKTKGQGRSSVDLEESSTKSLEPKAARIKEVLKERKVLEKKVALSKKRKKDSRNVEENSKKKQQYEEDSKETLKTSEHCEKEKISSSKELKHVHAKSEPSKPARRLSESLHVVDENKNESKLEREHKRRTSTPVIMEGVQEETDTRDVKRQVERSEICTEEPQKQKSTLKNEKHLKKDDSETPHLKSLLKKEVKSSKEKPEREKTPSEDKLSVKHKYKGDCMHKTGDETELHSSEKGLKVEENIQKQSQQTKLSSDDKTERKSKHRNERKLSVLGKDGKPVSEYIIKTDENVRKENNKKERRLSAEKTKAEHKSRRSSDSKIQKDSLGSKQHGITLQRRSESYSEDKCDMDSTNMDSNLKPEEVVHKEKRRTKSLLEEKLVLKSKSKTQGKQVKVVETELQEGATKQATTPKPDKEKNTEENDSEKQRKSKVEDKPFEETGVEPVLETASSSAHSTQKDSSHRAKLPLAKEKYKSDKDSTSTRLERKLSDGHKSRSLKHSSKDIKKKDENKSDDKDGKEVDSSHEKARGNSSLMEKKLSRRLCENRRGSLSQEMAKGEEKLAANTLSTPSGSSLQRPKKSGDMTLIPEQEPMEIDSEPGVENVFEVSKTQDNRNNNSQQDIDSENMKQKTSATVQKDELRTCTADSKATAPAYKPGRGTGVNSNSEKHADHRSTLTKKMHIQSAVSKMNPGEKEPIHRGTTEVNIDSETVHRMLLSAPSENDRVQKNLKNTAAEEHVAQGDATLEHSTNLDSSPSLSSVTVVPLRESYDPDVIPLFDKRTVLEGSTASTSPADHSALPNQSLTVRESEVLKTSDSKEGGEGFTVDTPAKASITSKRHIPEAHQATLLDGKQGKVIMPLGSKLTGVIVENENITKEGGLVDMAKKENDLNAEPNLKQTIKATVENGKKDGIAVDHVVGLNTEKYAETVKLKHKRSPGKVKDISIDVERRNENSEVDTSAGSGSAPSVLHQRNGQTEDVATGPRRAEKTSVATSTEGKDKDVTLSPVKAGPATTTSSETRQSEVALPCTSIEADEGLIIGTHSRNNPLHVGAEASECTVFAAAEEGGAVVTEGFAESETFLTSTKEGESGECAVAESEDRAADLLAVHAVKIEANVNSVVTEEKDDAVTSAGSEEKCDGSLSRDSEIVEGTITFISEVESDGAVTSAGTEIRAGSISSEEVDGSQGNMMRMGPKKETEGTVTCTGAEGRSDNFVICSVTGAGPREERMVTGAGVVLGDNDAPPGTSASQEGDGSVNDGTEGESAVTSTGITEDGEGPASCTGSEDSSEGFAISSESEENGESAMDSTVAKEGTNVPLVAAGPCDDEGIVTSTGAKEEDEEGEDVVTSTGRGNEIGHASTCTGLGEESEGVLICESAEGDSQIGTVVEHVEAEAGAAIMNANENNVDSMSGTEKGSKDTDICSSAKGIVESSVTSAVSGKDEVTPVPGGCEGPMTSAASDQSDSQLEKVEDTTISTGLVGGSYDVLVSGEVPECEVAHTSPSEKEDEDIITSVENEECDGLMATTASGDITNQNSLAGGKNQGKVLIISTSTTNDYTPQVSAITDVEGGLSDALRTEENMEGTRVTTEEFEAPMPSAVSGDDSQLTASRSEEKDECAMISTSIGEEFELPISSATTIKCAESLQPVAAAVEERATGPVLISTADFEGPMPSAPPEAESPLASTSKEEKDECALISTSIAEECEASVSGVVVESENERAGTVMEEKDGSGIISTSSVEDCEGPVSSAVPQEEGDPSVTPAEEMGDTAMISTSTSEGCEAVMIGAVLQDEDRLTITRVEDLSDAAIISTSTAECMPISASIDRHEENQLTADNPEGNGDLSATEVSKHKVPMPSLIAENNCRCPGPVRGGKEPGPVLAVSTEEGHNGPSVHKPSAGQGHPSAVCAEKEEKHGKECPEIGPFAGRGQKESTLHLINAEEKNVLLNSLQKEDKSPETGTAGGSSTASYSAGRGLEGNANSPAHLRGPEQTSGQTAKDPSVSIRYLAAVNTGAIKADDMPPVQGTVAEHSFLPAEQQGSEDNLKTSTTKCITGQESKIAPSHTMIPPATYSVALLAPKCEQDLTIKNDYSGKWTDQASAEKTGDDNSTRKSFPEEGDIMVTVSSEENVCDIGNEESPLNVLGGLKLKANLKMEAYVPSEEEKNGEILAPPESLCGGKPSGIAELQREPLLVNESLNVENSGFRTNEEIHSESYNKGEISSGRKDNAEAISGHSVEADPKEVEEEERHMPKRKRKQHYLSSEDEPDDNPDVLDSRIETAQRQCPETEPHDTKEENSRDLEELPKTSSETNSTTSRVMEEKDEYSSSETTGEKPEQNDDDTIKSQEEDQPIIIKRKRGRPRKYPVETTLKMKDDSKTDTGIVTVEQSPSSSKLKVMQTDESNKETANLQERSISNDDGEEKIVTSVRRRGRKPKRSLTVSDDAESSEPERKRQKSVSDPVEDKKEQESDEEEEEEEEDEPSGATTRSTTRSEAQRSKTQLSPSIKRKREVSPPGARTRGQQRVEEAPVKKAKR
UniProt Q8NAF0: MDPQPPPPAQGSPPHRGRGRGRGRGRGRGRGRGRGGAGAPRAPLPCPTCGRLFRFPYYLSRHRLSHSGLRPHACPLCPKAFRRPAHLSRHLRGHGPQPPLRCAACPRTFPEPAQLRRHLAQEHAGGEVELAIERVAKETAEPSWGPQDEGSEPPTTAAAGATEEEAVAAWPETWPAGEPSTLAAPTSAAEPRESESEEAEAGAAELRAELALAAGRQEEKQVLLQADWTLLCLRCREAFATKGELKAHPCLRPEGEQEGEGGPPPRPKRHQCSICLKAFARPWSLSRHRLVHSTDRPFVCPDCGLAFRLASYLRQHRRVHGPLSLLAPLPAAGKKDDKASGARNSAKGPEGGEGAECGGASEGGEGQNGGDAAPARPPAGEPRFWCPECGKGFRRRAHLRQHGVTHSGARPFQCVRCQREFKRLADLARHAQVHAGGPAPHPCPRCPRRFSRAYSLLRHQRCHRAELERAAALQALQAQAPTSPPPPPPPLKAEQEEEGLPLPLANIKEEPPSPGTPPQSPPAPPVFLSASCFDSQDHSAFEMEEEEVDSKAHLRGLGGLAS

compound: CN[C@@H]1C[C@H]2O[C@@](C)([C@@H]1OC)n1c3ccccc3c3c4c(c5c6ccccc6n2c5c31)C(=O)NC4 [staurosporine]; assay: log2 fold change of tryptic peptide abundance, ligand vs vehicle (limited proteolysis) (log2 ratio); higher = more trypsin-susceptible (destabilized); settings: ligand concentration: 20 uM; sample: K562 cleared lysate; digestion: 4 min, 22 C (HT-PELSA RT4min, Orbitrap Astral)

Target | log2 fold change
UniProt Q8NF67 (peptide sequence: MLEEEILNLK, peptide start residue: 197) | -0.37
ARFGAP2 (peptide sequence: LREQQAADAK, peptide start residue: 254) (UniProt Q8N6H7) | 0.348
USP32 (peptide sequence: LRLPQIGSK, peptide start residue: 1409) (UniProt Q8NFA0) | 1.77
UniProt Q8N9B4 (peptide sequence: LLEELQK, peptide start residue: 690) | -0.0731
UniProt Q8TAC2 (peptide sequence: APEALGDEDGVR, peptide start residue: 145) | 0.192
PSMA8 (peptide sequence: LTVEDPVTVEYITR, peptide start residue: 96) (UniProt Q8TAA3) | -0.153
NUP35 (peptide sequence: SPLLAGGSPPQPVVPAHK, peptide start residue: 66) (UniProt Q8NFH5) | 0.235
TSEN2 (peptide sequence: AEAVFHAPKR, peptide start residue: 2) (UniProt Q8NCE0) | 0.395
DTWD2 (peptide sequence: PSGASSSQTPNDKER, peptide start residue: 17) (UniProt Q8NBA8) | -0.463
UniProt Q8NFC6 (peptide sequence: QQYEEDSKETLK, peptide start residue: 591) | -0.413
ZNF579 (peptide sequence: HAQVHAGGPAPHPCPRCPR, peptide start residue: 430) (UniProt Q8NAF0) | 0.814
